Holding throughout (experiment): EMSA
A general note: A gel shift assay detects complexes by their altered migration in electrophoresis.

The chains behind the UniProt entries cited, without tags or fusion partners.
UniProt P08515, whole entry: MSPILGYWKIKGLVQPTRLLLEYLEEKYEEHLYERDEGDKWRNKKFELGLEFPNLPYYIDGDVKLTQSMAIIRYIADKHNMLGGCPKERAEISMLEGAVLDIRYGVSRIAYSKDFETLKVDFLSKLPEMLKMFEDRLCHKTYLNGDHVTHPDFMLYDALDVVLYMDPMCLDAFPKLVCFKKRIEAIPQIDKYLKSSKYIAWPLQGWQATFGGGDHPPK

The target of one data set is GST (UniProt P08515). The settings on record: 5' phosphorylated; Protein in Buffer 1: 100 mM KCl, 50 mM HEPES pH 7.5, 10% glycerol, 5 mM MgCl2, 1 mM DTT; recombinant protein; protein details: GST.
In data set [1] the test system is GST-FruB DBD (Drosophila melanogaster). Conditions: binding attributed to the common flanks present in all oligos; 5' phosphorylated; Protein in Buffer 1: 100 mM KCl, 50 mM HEPES pH 7.5, 10% glycerol, 5 mM MgCl2, 1 mM DTT; recombinant protein; protein details: N-terminal GST (pGEX-4T1).
For data set [2], the system named is GST-FruA DBD (Drosophila melanogaster). Conditions: 5' phosphorylated; Protein in Buffer 1: 100 mM KCl, 50 mM HEPES pH 7.5, 10% glycerol, 5 mM MgCl2, 1 mM DTT; recombinant protein; protein details: N-terminal GST (pGEX-4T1).
Data set [3] has as its system GST-FruC DBD (Drosophila melanogaster). The settings on record: 5' phosphorylated; Protein in Buffer 1: 100 mM KCl, 50 mM HEPES pH 7.5, 10% glycerol, 5 mM MgCl2, 1 mM DTT; recombinant protein; protein details: N-terminal GST (pGEX-4T1).

For at least one entry, the source does not settle the construct or the ends of the probe. For some assays here: Negatives hold for the conditions tested. For some assays here: At least one verdict rests on a figure or table, not on a statement of the authors.

As to “TCGACCTGCAGAGTAACCTGCAGG / TCGACCTGCAGGTTACTCTGCAGG [FruMA consensus oligo]”, the binding result in the data set with GST is reported as “no binding”; in data set [1], “binds”; in data set [2], “binds”; in data set [3], “no binding”.

As to “TCGACCTGCAGGCATCTATATCTGCAGG / TCGACCTGCAGATATAGATGCCTGCAGG [FruMC randomized oligo]”, the binding result in data set [3] is on record as “no binding”.

Consider “TCGACCTGCAGATAGACCTGCAGG / TCGACCTGCAGGTCTATCTGCAGG [FruMA randomized oligo]”, for which the binding result in data set [2] is “no binding”.

Turning to “TCGACCTGCAGTGTTACATCACTGCAGG / TCGACCTGCAGTGATGTAACACTGCAGG [FruMC consensus oligo]”, the binding result is listed as “no binding” in data set [2] and “binds” in data set [3].

The record behind these values is article PMC3852243.
